Experimental data published in publication PMC10511752, “Natural product-inspired synthesis of coumarin–chalcone hybrids as potential anti-breast cancer agents” (Frontiers in Pharmacology, 2023).

System: MDA-MB-231 (breast cancer) cells
Experiment: MTT cell proliferation assay, MDA-MB-231
Assay type: cell-based
Conditions: Homo sapiens, MDA-MB-231 (ER -ve), 48 h, read-out: IC50 values (mean ± SEM) MDA-MB-231
Method: We conducted an in vitro MTT assay to evaluate the anti-cancer activity of the synthesized neo-tanshinlactone–chalcone hybrid compounds, 26–37, against four human cancer cell lines, namely, MCF-7 (breast cancer), MDA-MB-231 (breast cancer), Ishikawa (endometrial cancer), and HeLa (cervical cancer). The toxicity of the hybrid molecules on the normal human embryonic kidney cell line HEK-293 was also evaluated.
MCF-7, MDA-MB231, and HEK293 cell lines were purchased from ATCC (Manassas, VA, United States). Ishikawa cell lines were obtained from the European Collection of Cell Cultures. They were maintained in Dulbecco’s modified Eagle medium (DMEM) supplemented with 10% fetal bovine serum (FBS). Cells were cultured at 37°C and 5% CO2. Before the experiments, cells were cultured in phenol red-free DMEM supplemented with 10% charcoal stripped fetal bovine serum.
The synthesized hybrid compounds were tested for their anti-cancer activity using the MTT reduction assay on 2.5 × 10^3 cells per well that were seeded in 100 µL DMEM supplemented with 10% FBS in each well of 96-well microculture plates. After seeding, the cells were incubated for 24 h at 37°C in a CO2 incubator. […] The absorbance was then recorded at a wavelength of 540 nm ([Saquib et al., 2021]; [Gupta et al., 2022]; [Iqbal et al., 2023])

Molecule `CC/C(=C(\c1ccccc1)c1ccc(OCCN(C)C)cc1)c1ccccc1` [TAM, tamoxifen, reference compound] has an IC50 of 15.5 ± 2.64 µM.
